Sequences of proteins named here, by UniProt entry; tags and fusion partners are left off. Residues count along the entry.
UniProt Q9WMX2, 1192-1657: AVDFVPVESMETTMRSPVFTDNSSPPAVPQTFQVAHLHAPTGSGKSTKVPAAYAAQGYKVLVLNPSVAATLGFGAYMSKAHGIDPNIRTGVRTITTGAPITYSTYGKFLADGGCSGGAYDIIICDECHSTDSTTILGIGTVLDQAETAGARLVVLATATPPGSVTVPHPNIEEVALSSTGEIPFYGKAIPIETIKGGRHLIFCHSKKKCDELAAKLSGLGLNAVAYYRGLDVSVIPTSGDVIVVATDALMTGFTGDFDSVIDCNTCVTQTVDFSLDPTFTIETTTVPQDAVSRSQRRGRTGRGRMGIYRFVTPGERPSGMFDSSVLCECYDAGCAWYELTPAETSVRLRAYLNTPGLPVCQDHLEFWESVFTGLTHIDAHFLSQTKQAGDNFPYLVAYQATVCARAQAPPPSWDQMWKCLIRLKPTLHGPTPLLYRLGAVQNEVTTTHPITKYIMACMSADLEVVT

According to patent US9464064B2, “HCV helicase inhibitors and methods of use thereof” (University of Kansas, priority 2011, dated 2016):

Molecular target: T1, HCV NS3 helicase NS3h_1b(con1) (Hepatitis C virus genotype 1b, UniProt Q9WMX2)
T1 construct: truncated C-terminally His-tagged NS3 proteins lacking the N-terminal protease, called NS3h; His-tag (C); made in house
Assay: MBHA screen of NCI mechanistic set library at 20 μM (percent inhibition, compound interference)
Type: biochemical
Settings: compounds at 20 μM
Description: All molecular beacon-based helicase assays (MBHAs) were performed according to known methods (Belon & Frick (2008) supra; Belon & Frick (2009) supra). […] In each flat, black 384-well plate, 56 compounds were tested, in triplicate, along with three negative controls (DMSO only), three positive controls (500 nM dT20), and two wells with no enzyme. Fluorescence was read before ATP (F0) addition and 30 minutes after ATP was added to 1 mM (F30) using a Tecan Infinite M200 fluorescence microplate reader with excitation and emission wavelengths set to 643 and 670 nm, respectively. Percent inhibition was calculated with equation 1, and compound interference in the MBHA was calculated with equation 2.
In Equations 1 and 2, Fc0 is the fluorescence of the reactions containing the test compound before adding ATP, Fc30 is the fluorescence of the test compound reaction 30 minutes after adding ATP. […]
To identify HCV helicase inhibitors, the MBHA was first used to screen the National Cancer Institute Developmental Therapeutics Program's mechanistic set library. […] Compounds were ranked by their ability to inhibit HCV helicase-catalyzed DNA unwinding as calculated from Equation 1.
Compound interference in the MBHA was evaluated by comparing the fluorescence of reactions containing each compound to the fluorescence of DMSO-only negative controls before ATP was added.

- Inh. (%) (Inhibition) (MBHA with a DNA substrate, calculated from Equation 1): −23.7%
- Int.* (Ratio) (Interference) (assay interference calculated with Equation 2 (fluorescence vs DMSO-only controls before ATP)): 1.01 Ratio
SMILES: COc1cc2c(c(OC)c1OC)-c1ccc(OC)c(=O)cc1[C@@H](N)CC2.O=C(O)C(O)C(O)C(=O)O [Compound 36354]
